# Drug screen on melanoma cell lines: apoptosis marker

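Human melanoma cell lines in 1,536-well plates were treated with two drugs together for 72 h, then fixed, stained and imaged. The read-out is the fraction of cleaved-PARP-positive nuclei, in % of that fraction in the DMSO control; 200 means twice the control level of this apoptosis marker. Concentrations were fixed for each drug; these are the higher of two levels. The file gives one value for each pair and line, without errors, so small differences may be noise. The marker varies much from line to line, for technical or biological reasons.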
This is part of the screen, not chosen by result.
An entry leaves out what has no value listed here.
A dash means that no value is listed here.

Drug key:
ruxolitinib: N#CC[C@H](C1CCCC1)n1cc(-c2ncnc3[nH]ccc23)cn1 at 5000 nM
embelin: CCCCCCCCCCCC1=C(O)C(=O)C=C(O)C1=O at 6000 nM
SU6656: CN(C)S(=O)(=O)c1ccc2c(c1)/C(=C/c1cc3c([nH]1)CCCC3)C(=O)N2 at 2000 nM
SNS-032: CC(C)(C)c1cnc(CSc2cnc(NC(=O)C3CCNCC3)s2)o1 at 50 nM
enzastaurin: Cn1cc(C2=C(c3cn(C4CCN(Cc5ccccn5)CC4)c4ccccc34)C(=O)NC2=O)c2ccccc21 at 4000 nM
KU-55933: O=c1cc(-c2cccc3c2Sc2ccccc2S3)oc(N2CCOCC2)c1 at 5000 nM
TCS401: O=C(O)C(=O)Nc1sc2c(c1C(=O)O)CCNC2 at 8330 nM
tanespimycin: C=CCNC1=C2C[C@@H](C)C[C@H](OC)[C@H](O)[C@@H](C)/C=C(\C)[C@H](OC(N)=O)[C@@H](OC)/C=C\C=C(/C)C(=O)NC(=CC1=O)C2=O at 10 nM
SNS-314: O=C(Nc1cccc(Cl)c1)Nc1ncc(CCNc2ncnc3ccsc23)s1 at 4 nM
dorsomorphin: c1cc(-c2cnn3cc(-c4ccc(OCCN5CCCCC5)cc4)cnc23)ccn1 at 2000 nM
FH535: Cc1cc([N+](=O)[O-])ccc1NS(=O)(=O)c1cc(Cl)ccc1Cl at 5000 nM
NVP-BEZ235: Cn1c(=O)n(-c2ccc(C(C)(C)C#N)cc2)c2c3cc(-c4cnc5ccccc5c4)ccc3ncc21 at 20 nM
GW9662: O=C(Nc1ccccc1)c1cc([N+](=O)[O-])ccc1Cl at 10000 nM
PF-04217903: OCCn1cc(-c2cnc3nnn(Cc4ccc5ncccc5c4)c3n2)cn1 at 5000 nM
temozolomide: Cn1nnc2c(C(N)=O)ncn2c1=O at 10000 nM
OSI-906: C[C@]1(O)C[C@@H](c2nc(-c3ccc4ccc(-c5ccccc5)nc4c3)c3c(N)nccn32)C1 at 2000 nM
tozasertib: Cc1cc(Nc2cc(N3CCN(C)CC3)nc(Sc3ccc(NC(=O)C4CC4)cc3)n2)n[nH]1 at 30 nM
crizotinib: C[C@@H](Oc1cc(-c2cnn(C3CCNCC3)c2)cnc1N)c1c(Cl)ccc(F)c1Cl at 1000 nM
vorinostat: O=C(CCCCCCC(=O)Nc1ccccc1)NO at 400 nM
gemcitabine: Nc1ccn([C@@H]2O[C@H](CO)[C@@H](O)C2(F)F)c(=O)n1 at 2 nM

| # | Drugs | MEL-HO | G-361 | 501mel | MeWo |
|---|---|---|---|---|---|
| 1 | crizotinib and PF-04217903 | 81.8 | 103 | - | 182 |
| 2 | tanespimycin and SU6656 | 71.1 | 236 | - | 419 |
| 3 | KU-55933 and SNS-032 | 52.2 | 102 | 49.2 | 76.8 |
| 4 | tozasertib and temozolomide | 87.6 | 39.4 | - | 134 |
| 5 | SNS-314 and embelin | 67.0 | 164 | 78.9 | 61.9 |
| 6 | tanespimycin and gemcitabine | 236 | 407 | - | 437 |
| 7 | OSI-906 and gemcitabine | 57.4 | 243 | - | 127 |
| 8 | crizotinib and gemcitabine | 53.8 | 381 | - | 424 |
| 9 | dorsomorphin and SU6656 | 55.3 | 136 | 132 | 99.9 |
| 10 | vorinostat and KU-55933 | 110 | 61.5 | 235 | 74.2 |
| 11 | SU6656 and TCS401 | 57.2 | 222 | 131 | 74.1 |
| 12 | SNS-314 and enzastaurin | 99.4 | 103 | - | 142 |
| 13 | NVP-BEZ235 and GW9662 | 40.6 | 216 | 59.9 | 60.5 |
| 14 | OSI-906 and enzastaurin | 42.7 | 51.7 | - | 64.4 |
| 15 | ruxolitinib and vorinostat | 75.4 | 141 | - | 164 |
| 16 | TCS401 and tanespimycin | 74.6 | 211 | 42.5 | 256 |
| 17 | tozasertib and FH535 | 145 | 302 | - | 122 |
| 18 | vorinostat and dorsomorphin | 111 | 150 | 127 | 92.5 |
| 19 | SNS-032 and tozasertib | 65.9 | 98.3 | - | 137 |
| 20 | NVP-BEZ235 and tanespimycin | 52.0 | 452 | - | 126 |

Some entries from above, unchanged:

- tozasertib and temozolomide : MEL-HO: 87.6; G-361: 39.4; MeWo: 134
- crizotinib and gemcitabine : MEL-HO: 53.8; G-361: 381; MeWo: 424

Values as published with doi:10.1371/journal.pone.0140310, rounded.